Test results taken from patent US20100003332A1, “Process For Preparing Powder Comprising Nanoparticles of Sparingly Soluble Drug” (Amorepacific Corporation, priority 2006, published 2010).
At least one structure is not confirmed: it was looked up by name or label, or the drawing left a doubt.

Experiment: Particle size of active ingredient (cilostazol, fenofibrate, itraconazole) powders redispersed in distilled water, laser scattering particle size analyzer
Format: physicochemical
Details: powder redispersed in aqueous solution; surface stabilizer HPC; dispersion agent SUCROSE
Method: 1.2 g of each of the active ingredient, 0.2 g of hydroxypropyl cellulose and 1.2 g of sucrose were added to 6.1 g of distilled water containing a saturated solution of sucrose, an appropriate amount of zirconia bead having the average particle size of 1 mm were added thereto, and the mixture was roll ground at a rate of 108 rpm for 5 days. The slurry mixture thus obtained was screened to remove the beads, and the residue was high-pressure filtered (pressure: 640 mmHg) using the sound pressure, followed by vacuum drying to obtain powders.

## CCC(C)n1ncn(-c2ccc(N3CCN(c4ccc(OCC5COC(Cn6cncn6)(c6ccc(Cl)cc6Cl)O5)cc4)CC3)cc2)c1=O (stereo not drawn) [Itraconazole, itraconazole]
  Average particle size: 132 nm
  Range of particle size: 62~234

## CC(C)OC(=O)C(C)(C)Oc1ccc(C(=O)c2ccc(Cl)cc2)cc1 [Fenofibrate, fenofibrate]
  Average particle size: 322 nm
